This passage reports binding results from PMC7853042.

Protein sequences, listed by entry. Tags and fused reporters are not part of them.
UniProt Q04206: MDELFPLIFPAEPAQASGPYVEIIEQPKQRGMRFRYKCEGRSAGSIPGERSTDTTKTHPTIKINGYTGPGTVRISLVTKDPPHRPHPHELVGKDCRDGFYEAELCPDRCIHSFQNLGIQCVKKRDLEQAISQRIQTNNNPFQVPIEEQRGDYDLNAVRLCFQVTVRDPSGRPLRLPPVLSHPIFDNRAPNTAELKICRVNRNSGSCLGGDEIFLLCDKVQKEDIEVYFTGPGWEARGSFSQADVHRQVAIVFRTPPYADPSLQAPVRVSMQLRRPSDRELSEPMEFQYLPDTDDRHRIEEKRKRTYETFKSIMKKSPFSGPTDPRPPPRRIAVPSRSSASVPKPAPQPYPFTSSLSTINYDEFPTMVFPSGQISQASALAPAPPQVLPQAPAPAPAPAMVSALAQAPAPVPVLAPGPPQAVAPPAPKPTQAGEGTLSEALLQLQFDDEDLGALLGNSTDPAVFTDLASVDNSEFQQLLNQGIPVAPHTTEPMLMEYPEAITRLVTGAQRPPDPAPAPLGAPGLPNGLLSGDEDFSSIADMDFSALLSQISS

Results are given in words; binding and its absence hold for the method and conditions named. In cells and extracts the contact can be indirect. Some entries that bind do so weakly or less than the wild type. Tags and fused reporters may be left off the sequences shown.

In the assay the target is T1, Coil domain of PDCD11 (Flag-Coil) (human) (UniProt Q14690).
T1 sequence: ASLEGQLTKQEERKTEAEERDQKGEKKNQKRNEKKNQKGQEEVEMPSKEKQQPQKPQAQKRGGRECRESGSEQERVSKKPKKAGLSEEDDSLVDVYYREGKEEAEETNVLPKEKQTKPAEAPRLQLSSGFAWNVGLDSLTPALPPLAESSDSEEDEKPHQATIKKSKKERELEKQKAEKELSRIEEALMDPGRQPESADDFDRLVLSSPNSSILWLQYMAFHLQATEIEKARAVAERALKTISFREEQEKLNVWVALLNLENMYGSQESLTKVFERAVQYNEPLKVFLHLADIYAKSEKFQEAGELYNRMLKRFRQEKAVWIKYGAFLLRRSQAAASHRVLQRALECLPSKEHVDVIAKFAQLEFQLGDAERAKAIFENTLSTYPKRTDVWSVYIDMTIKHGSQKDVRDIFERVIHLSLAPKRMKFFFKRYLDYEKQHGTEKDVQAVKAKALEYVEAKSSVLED
The assay can be described thus: co-IP; co-transfected cells lysed 48 h after transfection in RIPA buffer (50 mM Tris, 150 mM NaCl, 10% glycerol, 5 mM MgCl2, 0.5% NP40, protease inhibitor); anti-Flag agarose, 4 °C overnight; western blot (anti-GFP, anti-Flag). (A western blot detects proteins with antibodies after separation by electrophoresis.)

As for P65-GFP (from UniProt Q04206 1-551), the binding result is on record as “binds”.

B1: c-Rel-GFP (protein, UniProt Q04864 1-619)
chain: MASGAYNPYIEIIEQPRQRGMRFRYKCEGRSAGSIPGEHSTDNNRTYPSIQIMNYYGKGKVRITLVTKNDPYKPHPHDLVGKDCRDGYYEAEFGQERRPLFFQNLGIRCVKKKEVKEAIITRIKAGINPFNVPEKQLNDIEDCDLNVVRLCFQVFLPDEHGNLTTALPPVVSNPIYDNRAPNTAELRICRVNKNCGSVRGGDEIFLLCDKVQKDDIEVRFVLNDWEAKGIFSQADVHRQVAIVFKTPPYCKAITEPVTVKMQLRRPSDQEVSESMDFRYLPDEKDTYGNKAKKQKTTLLFQKLCQDHVETGFRHVDQDGLELLTSGDPPTLASQSAGITVNFPERPRPGLLGSIGEGRYFKKEPNLFSHDAVVREMPTGVSSQAESYYPSPGPISSGLSHHASMAPLPSSSWSSVAHPTPRSGNTNPLSSFSTRTLPSNSQGIPPFLRIPVGNDLNASNACIYNNADDIVGMEASSMPSADLYGISDPNMLSNCSVNMMTTSSDSMGETDNPRLLSMNLENPSCNSVLDPRDLRQLHQMSSSSMSAGANSNTTVFVSQSDAFEGSDFSCADNSMINESGPSNSTNPNSHGFVQDSQYSGIGSMQNEQLSDSFPYEFFQV
Regarding B1, the binding result was “binds”.
